# Experimental data as given in US20230106864A1, “COMPOSITIONS AND METHODS FOR THE TREATMENT OF INTRACELLULAR BACTERIAL INFECTIONS” (Endolytix Technology, Inc., priority 2020, published 2023).
# For at least one compound, name, drawing or mass did not settle the structure.
# System: M. abscessus
# Test: Cell growth assay of M. abscessus with ABlα plus antibiotic, Fractional Inhibitory Concentration (FIC) index
# Type: cell-based, Mycobacterium abscessus
# Details: antibiotic in combination with ABlα; FIG. 5
smiles,measurement,value
COc1c(N2C[C@@H]3CCCN[C@@H]3C2)c(F)cc2c(=O)c(C(=O)O)cn(C3CC3)c12 [moxifloxacin],effect on attenuation of M. abscessus growth by FIC index,synergistic
